78 molecules from article PMC12040169 (PLOS Biology, 2025) can be followed below.

The list shows a part of the results.

This assay concerns T1, CTL2-GFP (C. trachomatis L2/434/Bu, GFP-expressing).
T1 construct: L2/434/Bu, GFP-expressing
More on the design: species or system HeLa; Intracellular C. trachomatis growth in HeLa cells, bulk GFP fluorescence relative to DMSO. The following applies: bulk GFP, single well; 28.5 h, 10 µM; inhibitor.
Turning to `OCCC1CNCCN1CC1CCCCC1` (stereo not drawn) [CBK270115], the “% of control remaining” value amounted to 123.821%.

`Cc1csc(C(Cc2cccs2)NC(=O)Cc2ccccn2)n1` (stereo not drawn) [CBK285005]: the “% of control remaining” value is 105.003%. Consider `COCCc1nsc(N2CCCC(c3nccs3)C2)n1` (stereo not drawn) [CBK305110], for which the “% of control remaining” value stood at 176.96%.

Take `Cc1ccccc1S(=O)(=O)Nc1nccnc1-c1ccc2c(c1)OCO2` [CBK050941]: the “% of control remaining” value is reported as 90.4061%.

For the molecule `Cc1cc2ccccc2n2c(=O)n(CC(=O)N3CCCCCC3)nc12` [CBK283883], the “% of control remaining” value is on record as 120.226%. Next, `NNC(=O)CCn1c2ccc(Cl)cc2c2cc(Cl)ccc21` [CBK261413]: 113.262%; `CCN1CCN(c2ccc(NC(=O)Cn3cnc4c(=O)n(C)c(=O)n(C)c43)cc2Cl)CC1` [CBK269535]: 135.221%. With `O=C(CSc1nc(-c2ccccc2)cc(=O)[nH]1)NCc1ccccc1` [CBK287734], the “% of control remaining” value amounted to 120.045%. To `CCCNS(=O)(=O)c1cc(C(=O)O)ccc1OC` [CBK287152] belongs 117.165%; to `CC(=O)NC[C@@H]1C=C(C)[C@H](CC(=O)Nc2ccccn2)C[C@H]1C(C)C` [CBK289209], 115.538%. Next, `CC(C)(C)NC(=O)N1CCC(=O)N1` [CBK007341]: 126.118%; `O=C1NC2(CCc3ccccc31)CCN(C(=O)c1ccncc1)C2` (stereo not drawn) [CBK283336]: 120.261%. Regarding `CC1=NNC(=O)C1Cc1ccc(F)cc1` (stereo not drawn) [CBK067755], the “% of control remaining” value was determined as 78.9414%.

On to `Cn1nnc2cc(NCC3(CNC(=O)OC(C)(C)C)CC3)ccc21` [CBK304777], for which the “% of control remaining” value is recorded as 107.671%.

Turning to `CCCc1c(C)nc2ccc(C)cc2c1SCC(=O)O` [CBK263537], the “% of control remaining” value came to 100%. To `CCOC(=O)n1c(=O)n2n(c1=O)CC=CC2` [CBK023102] belongs 109.721%; to `C=CCN1C(=O)C2(CC(=O)N(Cc3ccccc3)C2=O)c2cc(OC)ccc21` (stereo not drawn) [CBK075281], 105.324%; to `Cc1nc(COc2ccc(C(=O)N3CCCC(C(N)=O)C3)cc2)no1` (stereo not drawn) [CBK305660], 105.499%. To `Cn1ccc2ccc(C(=O)Nc3nccs3)cc21` [CBK287910] belongs 126.063%.

With `CC(=O)Nc1ccc(NC(=O)CCn2c(-c3cccc(C)c3)n[nH]c2=S)cc1Cl` [CBK296656], the “% of control remaining” value came out at 163.468%. Next, `CC(=O)Nc1cccc(-n2nnnc2SCC2CCCN(C)C2)c1` (stereo not drawn) [CBK305294]: 106.795%; `CCN(Cc1cnc(C)s1)[C@H]1CCO[C@@H](c2ccccc2-c2ccc(OC)cc2)C1` [CBK285853]: 97.7073%; `O=C(CN1C(=O)COc2ccc(Cl)cc21)Nc1ccc2[nH]c(=O)[nH]c2c1` [CBK268295]: 75.6019%. To `O=C(O)c1cc(Br)cc2c3c([nH]c12)CCCC3` [CBK100973] belongs 124.731%; to `CC(C)(C)n1ncc2c(=O)n(CC(=O)Nc3ccccc3)cnc21` [CBK287541], 74.3951%; to `COc1ccc(Oc2nccnc2N2CCN(Cc3ccc(C(F)(F)F)cc3)CC2)cc1OC` [CBK083044T], 78.7829%.

For the molecule `O=C1NC[C@@H](Cc2ccccc2)NC(=O)C2(C/C=C/COc3ccccc31)CCN(Cc1ncccc1F)CC2` [CBK292193], the “% of control remaining” value is recorded as 84.8667%. Next, `COc1cccc(CN2CCN(C(=O)c3cccc(F)c3)CC2)c1OC` [CBK074527]: 111.956%; `O=C(O)/C=C/c1cccc(-c2cn3ccnc3c(NCc3cccnc3)n2)c1` [CBK066283]: 160.89%; `O=C(CSc1nc(-c2cccs2)cc(C(F)(F)F)n1)NN1CCOCC1` [CBK307375]: 145.927%. To `COCCc1noc(CC2CCN(c3cc(C)ncc3C#N)CC2)n1` [CBK304092] belongs 122.683%; to `COc1cc(CNc2cc(-c3ccc4c(c3)OCO4)ncn2)cc(OC)c1OC` [CBK037822], 90.9992%. As to `O=C(CSc1ccc(Cl)cc1)Nc1cccc2nsnc12` [CBK267936], the “% of control remaining” value is 100%.

Regarding `CCCC(=O)N1CCC(c2cc(C(F)F)c3c(C)noc3n2)CC1` [CBK285304], the “% of control remaining” value is 107.538%. For the molecule `Cc1nn(C)cc1CN(C)S(=O)(=O)c1cccc([N+](=O)[O-])c1` [CBK265399], the “% of control remaining” value was 129.074%. Turning to `Cn1c(=O)c2c(ncn2CC(=O)Nc2ccccc2C#N)n(C)c1=O` [CBK133465], the “% of control remaining” value is on record as 114.986%. Next, `CCn1nc(C)c(CN(C)C(=O)C2CC=CCC2C(=O)O)c1C` (stereo not drawn) [CBK286884]: 113.688%; `CCn1c(CN2CCN(Cc3ccc4c(c3)OCO4)CC2)n[nH]c1=S` [CBK013828]: 111.432%. Next, `CCCCSc1nc(N)cc(N2CCC3(CCNC(=O)CC3)CC2)n1` [CBK307001]: 122.022%.

Regarding `Cc1c(Br)c(C(F)(F)F)nn1CC(=O)Nc1ccc(Oc2cc([N+](=O)[O-])cc([N+](=O)[O-])c2)cc1` [CBK262558], the “% of control remaining” value stood at 96.673%.

For `CN1CCN(Cc2c(O)ccc3cc(-c4ccc(F)cc4)c(=O)oc23)CC1` [CBK267976], the “% of control remaining” value is 82.5335%. Next, `COC(=O)[C@@H](C)NC(=O)[C@H]1CN(C(=O)c2cccnc2)CCN1C(=O)NC1CCCCC1` [CBK289632]: 145.229%; `COc1cc(C(C)=O)ccc1OC(=O)CN1C(=O)c2ccccc2C1=O` [CBK262392]: 97.4353%; `OCCn1c(-c2ccc(Br)cc2)cn2c3ccccc3nc12` [CBK262167]: 80.3021%. Next, `CCc1ccc(CNC(=O)Cn2nnc(-c3ccc(CN4CCC(C)CC4)cn3)n2)cc1` [CBK153928C]: 87.0802%; `O=C(NCCS(=O)(=O)c1ccccc1)c1cnc(-c2ccc(Cl)cc2)c(-c2ccncc2)c1` [CBK037587]: 97.6039%. On to `COc1ccc(S(=O)(=O)n2ccc3cc(N4CCN(C)CC4)ccc32)cc1OC` [CBK000286C], for which the “% of control remaining” value is on record as 136.081%. To `O=C1NC2=C(C(=O)N(CC3CCCO3)C2)C(c2cccc(F)c2)N1` (stereo not drawn) [CBK282364] belongs 122.62%; to `COCCNC(=O)C(Cc1ccc(-c2ccc(S(C)(=O)=O)cc2)cc1)C1CCN(C(=O)OC(C)(C)C)CC1` (stereo not drawn) [CBK173129], 83.2733%; to `Cn1ccnc1C(NC(=O)N1CCOc2ccc(Cl)cc2C1)C1CC1` (stereo not drawn) [CBK307212], 138.417%. Next, `CSc1ccccc1C(=O)Nc1sc2c(c1C#N)CCN(C(C)=O)C2` [CBK304183]: 91.5942%; `CSc1nc(C(=O)N2CCCCC2c2cccc(F)c2)cs1` (stereo not drawn) [CBK306732]: 80.6825%. Next, `Cl/C(=C\c1ccccc1)CN1CCOCC1` [CBK261892]: 100.897%; `O=C(NCCCN1CCOCC1)/C(=N\O)c1ccccn1` [CBK288366]: 132.28%. As to `COc1ccc(C(=O)CSc2nnc(-c3ccccc3)c3ccccc23)cc1OC` [CBK297088], the “% of control remaining” value was 139.16%. For `Cc1cc(C(=O)N2CCC(F)CC2)n[nH]1` [CBK200277], the “% of control remaining” value came to 110.395%. To `CCOc1ccc(C(=O)NC(=S)Nc2sc(C)c(C)c2C#N)cc1Cl` [CBK268900] belongs 134.542%. Take `COc1cc(/C=C2\SC(=S)N(Cc3cccnc3)C2=O)ccc1OCc1cccc2ccccc12` [CBK264624]: the “% of control remaining” value is given as 95.9005%. To `O=C(c1cccs1)N1CCCC1c1nc2ccccc2[nH]1` (stereo not drawn) [CBK284006] belongs 164.768%; to `CN1CCOC(CNc2nc(-c3ccncc3)nc3c2CCC3)C1` (stereo not drawn) [CBK304890], 48.7707%.

For the molecule `COc1ccc(C(C)c2cc3c(cc2OCCO)OCO3)c(F)c1` (stereo not drawn) [CBK200111], the “% of control remaining” value is reported as 96.3869%.

On to `CN(C)c1nc(N2CCN(c3ccc(F)cc3)CC2)cc(C(F)(F)F)n1` [CBK007432], for which the “% of control remaining” value was found to be 84.6451%. To `O=C(CC1Oc2ccccc2NC1=O)Nc1ccc2c(c1)CN(Cc1ccccc1)C2` (stereo not drawn) [CBK285991] belongs 125.264%. Next, `CCC(=O)Nc1ccc(-c2csc(N3CCCC(C)C3)n2)cc1` (stereo not drawn) [CBK306478]: 107.001%. To `CN(C)c1ccc(/C=C/CN2CCN(c3ccc([N+](=O)[O-])cc3)CC2)cc1` [CBK261904] belongs 123.261%; to `NS(=O)(=O)c1ccc(NC(=O)CCCN2C(=O)/C(=C/c3ccc(Cl)cc3)SC2=S)cc1` [CBK261302], 105.555%; to `COC(=O)c1sc2cc(C(F)(F)F)cnc2c1-c1cccnc1` [CBK089885], 116.685%. Regarding `Nc1ccc2ccc(-c3ccncc3)nc2n1` [CBK067622], the “% of control remaining” value was 128.148%. Next, `O=C(Nc1nnc(-c2ccc3c(c2)OCCO3)o1)c1ccccc1F` [CBK287405]: 112.231%; `Cc1ccc(NS(=O)(=O)c2cc(C(=O)N3CCN(C)CC3)ccc2C)cc1C` [CBK269268]: 136.732%. To `COc1cccc(CNC(=O)CCc2nc3ccccc3[nH]2)c1` [CBK288003] belongs 108.424%; to `O=C1CCCC2=C1C(c1ccc(OCc3ccccc3)cc1)c1c([nH][nH]c1=O)N2` (stereo not drawn) [CBK288149], 122.159%; to `CC(C)(C)c1ccc(S(N)(=O)=O)cc1NC(=O)Nc1cccc(F)c1` [CBK093643], 93.0131%. To `CCn1nc(CO)c2c1CCN(CC(=O)NCc1cccs1)C2` [CBK307638] belongs 119.259%; to `CC(C)(CC(=O)O)CC(=O)N1CCCC1c1nc(-c2ccccc2)c2ccccn12` (stereo not drawn) [CBK046399], 100%; to `N#Cc1ccc(C(=O)N2CC[C@H]3NC(=O)N(c4ccccc4)C(=O)[C@H]32)cc1` [CBK289282], 134.295%. With `Fc1ccc(-c2noc(C3CCN(CCc4ccccc4)CC3)n2)cc1` [CBK051457], the “% of control remaining” value was 111.584%. To `CCN(CC)CCCOC1(C)SC(NC2CCCCCC2)=NC1=O` (stereo not drawn) [CBK113510] belongs 143.867%.
